# Tested on: mitochondrial protein synthesis (COX-1/SDH-A ratio) in H9C2 rat heart myoblast cells
# Assay: Mitochondrial protein synthesis inhibition (MitoBiogenesis in-cell ELISA, COX-1/SDH-A)
# Format: cell-based
# Settings: not given
row,SMILES,SI-MPS MPS/H37
1,Cl.Cn1nnc(-c2ccc(-c3ccc(N4C[C@H](CN)OC4=O)cc3F)cn2)n1 [AKG-3],1.91
2,CN(C)CCn1nnc(-c2ccc(-c3ccc(N4C[C@H](CN)OC4=O)cc3F)cn2)n1.Cl [AKG-28],27.41
3,"Cn1nnc(-c2ccc(-c3ccc(N4C[C@H](CO)OC4=O)cc3F)cn2)n1 [Tedizolid, reference compound]",0.57

# Same assay, conditions: MPS IC50 divided by MIC in H37Rv
row,SMILES,SI-MPS MPS/H37
1,Cl.NCCn1nnnc1-c1ccc(-c2ccc(N3C[C@H](CO)OC3=O)cc2F)cn1 [AKG-22],2.37
2,Cl.Cl.NCCn1nnc(-c2ccc(-c3ccc(N4C[C@H](CN)OC4=O)cc3F)cn2)n1 [AKG-29],32.80
3,CCN(CC)CCn1nnc(-c2ccc(-c3ccc(N4C[C@H](CNC(C)=O)OC4=O)cc3F)cn2)n1 [AKG-39],0.12
4,CCN(CC)CCCn1nnc(-c2ccc(-c3ccc(N4C[C@H](CNC(C)=O)OC4=O)cc3F)cn2)n1 [AKG-40],0.13

# From patent publication US20230348447A1, “OXAZOLIDINONE COMPOUNDS, LIPOSOME COMPOSITIONS COMPRISING OXAZOLIDINONE COMPOUNDS AND METHOD OF USE THEREOF” (priority 2020, published 2023)
